Reference: US10335462B2, “Use of long-acting GLP-1 peptides” (Novo Nordisk A/S, priority 2012, dated 2019)
At least one compound was matched to its structure with a doubt left.

System: human subjects with type 2 diabetes
Assay: 12-week randomised, double-blind, placebo-controlled trial: HbA1c and glycaemic control
Assay type: in vivo
Conditions: 1.8 mg once daily s.c., open-label, 12 weeks

## CCCCCCCCCCCCCCCC(=O)N[C@@H](CCC(=O)NCCCC[C@H](NC(=O)[C@H](C)NC(=O)[C@H](C)NC(=O)[C@H](CCC(N)=O)NC(=O)CNC(=O)[C@H](CCC(=O)O)NC(=O)[C@H](CC(C)C)NC(=O)[C@H](Cc1ccc(O)cc1)NC(=O)[C@H](CO)NC(=O)[C@H](CO)NC(=O)[C@@H](NC(=O)[C@H](CC(=O)O)NC(=O)[C@H](CO)NC(=O)[C@@H](NC(=O)[C@H](Cc1ccccc1)NC(=O)[C@@H](NC(=O)CNC(=O)[C@H](CCC(=O)O)NC(=O)[C@H](C)NC(=O)[C@@H](N)Cc1cnc[nH]1)[C@@H](C)O)[C@@H](C)O)C(C)C)C(=O)N[C@@H](CCC(=O)O)C(=O)N[C@@H](Cc1ccccc1)C(=O)N[C@H](C(=O)N[C@@H](C)C(=O)N[C@@H](Cc1c[nH]c2ccccc12)C(=O)N[C@@H](CC(C)C)C(=O)N[C@H](C(=O)N[C@@H](CCCNC(=N)N)C(=O)NCC(=O)N[C@@H](CCCNC(=N)N)C(=O)NCC(=O)O)C(C)C)[C@@H](C)CC)C(=O)O [liraglutide]
  patients brought to target (HbA1c <7%): 57%
